Results: patent US11389414B2, “Methods for treating atherosclerosis with gamma-ketoaldehyde scavengers” (Vanderbilt University, priority 2017, dated 2022)

Test: Body weight and plasma total cholesterol and triglyceride levels of treated mice
Type: in vivo, mouse
Conditions: comparison of the 3 groups (vehicle, 4-HOBA, 2-HOBA), western diet 16 weeks
Protocol: Mice: Ldlr^−/− and WT on C57BL/6 background mice were obtained from the Jackson Laboratory. Animal protocols were performed according to the regulations of Vanderbilt University's Institutional Animal Care and Usage Committee. Mice were maintained on chow or a Western-type diet containing 21% milk fat and 0.15% cholesterol (Teklad). Eight week old, female mice were pretreated mice with vehicle alone (Water) or containing either 1 g/L of 4-HOBA or 1 g/L of 2-HOBA. After two weeks, the mice continued to receive treatment and were administered a Western diet for 16 weeks to induce hypercholesterolemia and atherosclerosis.

| Compound | plasma total cholesterol levels | plasma triglyceride levels |
| --- | --- | --- |
| NCc1ccccc1O [2-HOBA, 2-hydroxybenzylamine] | not significantly different; also recorded: did not impact | not significantly different |
| NCc1ccc(O)cc1 [4-HOBA, 4-hydroxybenzylamine, reference compound] | not significantly different | not significantly different |

Entries after “also recorded” stand apart in the source; their conditions may differ.
